Assay results as given in PubChem BioAssay AID1498 (National Center for Advancing Translational Sciences (NCATS), 2009).
The list shows a part of the results. These are further read-outs of the screen, such as a control signal, another cell line or another target. No call is given for them. Most of these compounds were active or inconclusive in the main read-out, so they are no random draw. Words in brackets tell the shape of the fitted curve; partial curves, single points and poor fits give uncertain potencies.

Assay: Confirmation Concentration-Response Assay for Modulators of Lamin A Splicing
Settings: HeLa lamin A splicing GFP/RFP minigene, Acumen, 48 h; for ratio activity: GFP/RFP ratio at top concentration; for ratio activity / RFP activity: at 46.1 µM; for RFP activity: RFP channel at top concentration
Summary of the method: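 Splicing correction read as ratio of GFP (500-530 nm) to DsRed2 (575-640 nm) object intensity by Acumen cytometry, after 48 h compound treatment of stable HeLa reporter cells (600/well) in 2% FBS medium.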

[1] = measured here: GFP/RFP ratio splicing readout
[2] = measured here: RFP viability/nonspecific counter channel

Row | Compound | ratio activity | RFP activity | AC50 [1] | AC50 [2]
1 | COc1ccc(CNC(=O)CSc2ccc(Br)cc2)cc1OC | -16.4% | -13.3% | – | –
2 | CC(=O)Nc1ccc(CNc2ncnc3ccc(-c4c(C)noc4C)cc23)cc1 | -36.2% | 23.4% | 1.58 µM [falling, full curve] | –
3 | CCOc1ccc(-c2cc(CCCC(=O)NCc3cccnc3)no2)cc1 | -27.2% | 44.2% | – | 0.00126 µM [falling, full curve, poor fit]
4 | Cc1noc(C)c1-c1ccc2ncnc(NCc3cccn3C)c2c1 | -34.7% | -11.8% | 14.1 µM [falling, partial curve, poor fit] | –
5 | CCCCNC(=O)c1onc(CSc2ccccc2CC)c1C(=O)O | -54.8% | 24.6% | 35.5 µM [falling, partial curve, poor fit] | –
6 | Cc1noc(C)c1-c1ccc2ncnc(NCc3ccc(C(F)(F)F)cc3)c2c1 | -31.1% | -0.249% | 11.2 µM [falling, partial curve, poor fit] | –
7 | CC(=O)Nc1ccccc1OCC(=O)c1cc(C)n(Cc2cccs2)c1C | -24.2% | -21.6% | – | –
8 | O=c1cc(CSc2nnc(-c3cccs3)n2Cc2ccccc2)nc2sc3ccccc3n12 | -3.73% | -28.4% | – | –
9 | CC(=O)[C@@]1(O)CC[C@H]2[C@H]3C[C@@H](C)C4=CC(=O)C=C[C@]4(C)[C@@]3(F)[C@@H](O)C[C@]21C | -4.69% | -28% | – | 2.51 µM [falling, full curve, poor fit]
10 | Cc1noc(C)c1-c1ccc2ncnc(NCC3CCN(C)CC3)c2c1 | -38.4% | -13.4% | 7.94 µM [falling, full curve, poor fit] | –
11 | CC(O)/C=C/c1ccc2ccccc2n1 (configuration not stated) | -46.5% | -43.7% | 14.1 µM [falling, partial curve, poor fit] | –
12 | C/C(N)=C(/C#N)C(=O)COC(=O)c1cc(-c2ccc(Br)cc2)nc2ccccc12 | -6.41% | -26.5% | – | –
13 | Cc1ccc(CNc2ncnc3ccc(-c4c(C)noc4C)cc23)cc1 | -27.5% | -1.75% | 7.08 µM [falling, full curve, poor fit] | –
14 | CC[C@H]1CN2CCc3cc(OC)c(OC)cc3[C@@H]2C[C@@H]1C[C@H]1NCCc2cc(OC)c(OC)cc21 | -3.47% | -97% | 0.158 µM [falling, full curve, poor fit] | –
15 | COc1cc(/C=N/Nc2ncnc3sc4c(c23)CCC4)ccc1O | -17.6% | 31% | – | 1.26 µM [rising, full curve, poor fit]
16 | Cc1noc(C)c1CSc1nc2[nH]ncc2c(=O)n1-c1ccccc1 | -33.5% | -6.37% | 0.794 µM [falling, full curve, poor fit] | –
17 | O=C(c1ccc2ccccc2c1)N1CCN(c2ccc(O)cc2)CC1 | -43.1% | -19.1% | 3.98 µM [falling, full curve, poor fit] | –
18 | Cc1noc(C)c1-c1ccc2ncnc(NCc3ccc4[nH]ccc4c3)c2c1 | -26.4% | 12.1% | 3.98 µM [falling, full curve] | –
19 | COc1ccc2cc3[n+](cc2c1OC)CCc1cc2c(cc1-3)OCO2 | -20% | 5.25% | – | –

Row | Compound | ratio activity | RFP activity | AC50 [1] | AC50 [2]
20 | Cc1cccc(NC(=S)NCCC(C)C)c1 | -11.2% | -17.3% | – | –
21 | CNc1ncnc2ccc(-c3c(C)noc3C)cc12 | -7.24% | -31.9% | – | 0.282 µM [falling, full curve, poor fit]
22 | CC12CCC(C/C1=N\N=C1\NC(=O)/C(=C\c3cccc(Br)c3)S1)C2(C)C (configuration not stated) | -16.4% | -75.5% | – | 14.1 µM [falling, partial curve, poor fit]
23 | COc1cc(N)c(Cl)cc1C(=O)NC1CCN(Cc2ccccc2)CC1 | -15.1% | -5.69% | – | –
24 | Cc1cc(C)cc(N(CCC(=O)O)S(=O)(=O)c2ccc3ccccc3c2)c1 | -17.3% | 0.58% | – | 3.98 µM [rising, partial curve, poor fit]
25 | CCCCCOc1ccc(OC(=O)c2ccncc2)cc1 | -45.2% | -20.5% | 5.01 µM [falling, full curve, poor fit] | –
26 | Cc1cc(C)cc(SCc2noc(C(=O)NC(C)C)c2C(=O)O)c1 | -36.7% | -8.12% | 31.6 µM [falling, single point] | –
27 | Cc1noc(C)c1-c1ccc2ncnc(NC3CCCc4ccccc43)c2c1 (configuration not stated) | -39.7% | 3.86% | 7.94 µM [falling, full curve, poor fit] | –
28 | CCOc1ccccc1C(=O)N1CCN(C(c2ccccc2)c2ccccc2)CC1 | -15.9% | 1.04% | – | –
29 | Cc1noc(C)c1-c1ccc2ncnc(NCc3ccccc3F)c2c1 | -30.4% | 8.27% | 10 µM [falling, full curve, poor fit] | –
30 | COc1cccc(CNc2ncnc3ccc(-c4c(C)noc4C)cc23)c1 | -22.1% | -30.8% | – | 11.2 µM [falling, full curve, poor fit]
31 | COc1cc2c(cc1OC)C(C)N(C(=O)c1cc3ccccc3o1)CC2 (configuration not stated) | -27.5% | -13.8% | – | –
32 | CC1=CC(=O)c2ccccc2C1=O | 202% | -98.9% | – | 35.5 µM [falling, partial curve, poor fit]
33 | CCCCOc1ccc(OC(=O)c2cccnc2)cc1 | -42.9% | -2.8% | 4.47 µM [falling, full curve, poor fit] | –
34 | CCOC(=O)Nc1ccc2c(c1)N(C(=O)CCN1CCOCC1)c1ccccc1S2 | -23.3% | -1.28% | – | –
35 | Cc1noc(C)c1-c1ccc2ncnc(NC(C)c3ccccc3)c2c1 (configuration not stated) | -36.3% | -4.28% | 11.2 µM [falling, full curve, poor fit] | –
36 | Cc1cc(C)nc(Sc2nc(C)nc3c2oc2ccccc23)n1 | -47.2% | 2.04% | 3.55 µM [falling, full curve, poor fit] | –
37 | N=C1S/C(=C\c2cccc3ccccc23)C(=O)N1c1ccc(F)cc1 | -22.2% | -84.3% | – | 10 µM [falling, full curve, poor fit]
38 | Cc1nn(Cc2ccccc2Cl)c(C)c1C(=O)Nc1nnc(C2CC2)s1 | -39.5% | -40% | 1.78 µM [falling, full curve] | 11.2 µM [falling, partial curve, poor fit]

Of the compounds above, these have an NH in an aromatic ring.
Row | Compound | ratio activity | RFP activity | AC50 [1] | AC50 [2]
16 | Cc1noc(C)c1CSc1nc2[nH]ncc2c(=O)n1-c1ccccc1 | -33.5% | -6.37% | 0.794 µM [falling, full curve, poor fit] | –
18 | Cc1noc(C)c1-c1ccc2ncnc(NCc3ccc4[nH]ccc4c3)c2c1 | -26.4% | 12.1% | 3.98 µM [falling, full curve] | –

The list continues.

Row | Compound | ratio activity | RFP activity | AC50 [1] | AC50 [2]
39 | Cc1noc(C)c1-c1ccc2ncnc(NCc3ccccc3C(F)(F)F)c2c1 | -37.9% | 16.4% | 11.2 µM [falling, full curve, poor fit] | –
40 | Cc1noc(C)c1-c1ccc2ncnc(NCC3CCCCN3C)c2c1 (configuration not stated) | -35.2% | 7.98% | 7.94 µM [falling, full curve, poor fit] | –
41 | Cc1c(Cl)ccc2sc(NC(=O)CN3C(=O)c4ccccc4C3=O)nc12 | -11.1% | -6.77% | – | 0.631 µM [falling, full curve, poor fit]
42 | Oc1ccc(/C=N/Nc2nccnc2Cl)c(O)c1 | -31.7% | 36.8% | 2.82 µM [falling, full curve, poor fit] | 5.01 µM [rising, full curve, poor fit]
43 | Nc1ccc(Cc2nc3cc4ccccc4cc3[nH]2)cc1 | -51.8% | 18.6% | 5.01 µM [falling, full curve, poor fit] | –
44 | COc1ccccc1OCC(=O)NN=C(Cc1ccccc1)Cc1ccccc1 | -16.2% | -27.1% | – | 7.94 µM [falling, partial curve, poor fit]
45 | O=C(NO)C1CC2C=CC1C2 (configuration not stated) | -36.8% | -18.9% | 12.6 µM [falling, partial curve, poor fit] | –
46 | Cc1noc(C)c1-c1ccc2ncnc(NCc3ccc(Br)cc3)c2c1 | -31.7% | 13.4% | 14.1 µM [falling, full curve, poor fit] | –
47 | C/C=C\C1=CCCC1Nc1ncnc2ccc(-c3c(C)noc3C)cc12 (configuration not stated) | -31.8% | -24.9% | 11.2 µM [falling, full curve] | –
48 | Cc1noc(C)c1-c1ccc2ncnc(NCc3cccc(F)c3)c2c1 | -12.6% | -4.31% | 2.51 µM [falling, full curve, poor fit] | –
49 | COC1=C(N)C(=O)c2nc(-c3nc(C(=O)O)c(C)c(-c4ccc(OC)c(OC)c4O)c3N)ccc2C1=O | -38.9% | -21.4% | 0.000631 µM [falling, full curve, poor fit] | –
50 | Cc1csc(CNc2ncnc3ccc(-c4c(C)noc4C)cc23)c1 | -2.44% | -49.7% | 2.82 µM [falling, full curve] | 0.251 µM [rising, full curve, poor fit]
51 | Nc1ccc(N2CCN(C(=O)c3ccco3)CC2)cc1 | -43.7% | -11.9% | 8.91 µM [falling, full curve, poor fit] | –
52 | CCOC(=O)CSc1ncnc2c1nnn2-c1ccc(F)cc1 | -8.53% | -20.2% | – | 8.91 µM [falling, single point]
53 | Oc1ccccc1N=Nc1nc(-c2ccccc2)c(-c2ccccc2)[nH]1 | 4.93% | -73.8% | – | 25.1 µM [falling, partial curve, poor fit]
54 | COc1c(C)c2c(c(O)c1C/C=C(\C)CCC(=O)O)C(=O)OC2 | -58.8% | 29.9% | 0.447 µM [falling, full curve] | 0.631 µM [rising, full curve, poor fit]
55 | CC1CN(C(=O)N2c3ccccc3Sc3ccccc32)CC(C)O1 (configuration not stated) | -46.3% | 17.2% | 12.6 µM [falling, full curve, poor fit] | –
56 | COc1cc(CNc2ncnc3ccc(-c4c(C)noc4C)cc23)cc(OC)c1OC | -42.6% | 31.6% | 5.01 µM [falling, full curve, poor fit] | –
